Assay results: paper doi:10.1101/2022.10.17.512556 (bioRxiv, 2022)
Results are given in words; binding and its absence hold for the method and conditions named.

Chains of the proteins cited; added tags and fusions are not shown. Lines headed by an entry give the natural chain unless they say otherwise; changes in a name come on top. Residues count along the entry.
UniProt Q12306, 13-98: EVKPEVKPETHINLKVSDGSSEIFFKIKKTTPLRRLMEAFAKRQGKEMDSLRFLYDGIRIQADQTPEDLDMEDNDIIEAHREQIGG
UniProt P05231, 30-212: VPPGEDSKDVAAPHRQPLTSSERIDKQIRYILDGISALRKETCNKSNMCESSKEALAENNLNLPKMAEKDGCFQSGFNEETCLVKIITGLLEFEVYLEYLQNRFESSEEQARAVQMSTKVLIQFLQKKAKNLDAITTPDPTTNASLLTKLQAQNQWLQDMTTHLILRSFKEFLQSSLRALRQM

Target: T1, S210A DegP (E. coli) (UniProt P0C0V0)
T1 sequence: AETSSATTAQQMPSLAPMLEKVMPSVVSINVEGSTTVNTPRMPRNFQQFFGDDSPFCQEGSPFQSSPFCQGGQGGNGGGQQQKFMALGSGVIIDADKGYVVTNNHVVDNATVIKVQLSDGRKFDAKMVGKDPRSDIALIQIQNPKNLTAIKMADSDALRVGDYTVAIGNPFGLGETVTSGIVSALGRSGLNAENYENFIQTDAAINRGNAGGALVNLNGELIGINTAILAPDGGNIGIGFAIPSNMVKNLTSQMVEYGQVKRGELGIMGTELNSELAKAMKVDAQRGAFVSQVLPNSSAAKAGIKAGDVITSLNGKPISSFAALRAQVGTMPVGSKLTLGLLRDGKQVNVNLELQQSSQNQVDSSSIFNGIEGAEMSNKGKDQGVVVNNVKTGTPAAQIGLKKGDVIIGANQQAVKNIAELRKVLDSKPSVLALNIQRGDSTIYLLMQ
Test: dynamic light scattering

Substance	binding
His-SUMO (from UniProt Q12306 13-98)	no binding
IL6 (from UniProt P05231 30-212)	no binding
